Results deposited as PubChem BioAssay AID1224828 (NIAID, 2016)
Here is one part, drawn at random, of about 17,000 reagents. 762 of all reagents (4.5%) count as active. 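Active calls include both raised and lowered p65 entry, mostly lowered; wells with fewer than 50 cells lack a z-score.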 Raw values vary from plate to plate and are shown uncorrected. A number with no mark means an inactive call.

Test: 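Knock-downs that increase or decrease LPS-induced p65 nuclear translocation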 (primary screen)
Cell system: mouse RAW264.7 G9 macrophage reporter cells (GFP-p65, Tnf promoter-mCherry)
Reagents: siRNA pool against mouse genes, 100 nM
Timing: 2 days siRNA transfection, then 40 min LPS before fixation
Treatment: LPS (Salmonella minnesota R595) at 10 ng/ml
Detection: 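Imaged p65 nuclear translocation ratio, normalised to the plate median, converted to robust z-scores and averaged across two replicates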
Scale: p65 translocation robust z-score: higher = more nuclear NF-kappaB p65 after LPS than the plate median; nuclear/cytoplasmic p65 ratio: higher = more nuclear NF-kappaB p65
Rule for the call: 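Active if robust z is above 3.3 (negative regulators) or below -1.56, the Tlr4 control median (positive regulators); activity score 50 or more; control wells not called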
Calls: active = hit (p65 shift raised or lowered); inactive = no clear change

{"gene knocked down":"Or9r7 (olfactory receptor family 9 subfamily R member 7)","p65 translocation robust z-score":0.13,"nuclear/cytoplasmic p65 ratio, rep 1":1.46,"nuclear/cytoplasmic p65 ratio, rep 2":1.33,"low cell count flag":"enough cells to score"}
{"gene knocked down":"Adcy9 (adenylate cyclase 9)","p65 translocation robust z-score":"-1.92 (active)","nuclear/cytoplasmic p65 ratio, rep 1":1.27,"nuclear/cytoplasmic p65 ratio, rep 2":1.44,"low cell count flag":"enough cells to score"}
{"gene knocked down":"Cadm4 (cell adhesion molecule 4)","p65 translocation robust z-score":"-1.65 (active)","nuclear/cytoplasmic p65 ratio, rep 1":1.33,"nuclear/cytoplasmic p65 ratio, rep 2":1.2,"low cell count flag":"enough cells to score"}
{"gene knocked down":"Znrf4 (zinc and ring finger 4)","nuclear/cytoplasmic p65 ratio, rep 1":1.15,"nuclear/cytoplasmic p65 ratio, rep 2":1.17,"low cell count flag":"fewer than 50 cells per well; well left out of scoring"}
{"gene knocked down":"Six2 (sine oculis-related homeobox 2)","p65 translocation robust z-score":"-1.8 (active)","nuclear/cytoplasmic p65 ratio, rep 1":1.42,"nuclear/cytoplasmic p65 ratio, rep 2":1.17,"low cell count flag":"enough cells to score"}
{"gene knocked down":"Ahcyl2 (S-adenosylhomocysteine hydrolase-like 2)","nuclear/cytoplasmic p65 ratio, rep 1":1.12,"nuclear/cytoplasmic p65 ratio, rep 2":1.3,"low cell count flag":"fewer than 50 cells per well; well left out of scoring"}
{"gene knocked down":"Ptprb (protein tyrosine phosphatase receptor type B)","p65 translocation robust z-score":0.32,"nuclear/cytoplasmic p65 ratio, rep 1":1.46,"nuclear/cytoplasmic p65 ratio, rep 2":1.52,"low cell count flag":"enough cells to score"}
{"gene knocked down":"Zfy1 (zinc finger protein 1, Y-linked)","nuclear/cytoplasmic p65 ratio, rep 1":1.36,"nuclear/cytoplasmic p65 ratio, rep 2":1.06,"low cell count flag":"fewer than 50 cells per well; well left out of scoring"}
{"gene knocked down":"Evl (Ena-vasodilator stimulated phosphoprotein)","p65 translocation robust z-score":-0.45,"nuclear/cytoplasmic p65 ratio, rep 1":1.47,"nuclear/cytoplasmic p65 ratio, rep 2":1.25,"low cell count flag":"enough cells to score"}
{"gene knocked down":"Or10q12 (olfactory receptor family 10 subfamily Q member 12)","p65 translocation robust z-score":0.74,"nuclear/cytoplasmic p65 ratio, rep 1":1.66,"nuclear/cytoplasmic p65 ratio, rep 2":1.57,"low cell count flag":"enough cells to score"}
{"gene knocked down":"Kctd10 (potassium channel tetramerisation domain containing 10)","p65 translocation robust z-score":-0.89,"nuclear/cytoplasmic p65 ratio, rep 1":1.49,"nuclear/cytoplasmic p65 ratio, rep 2":1.25,"low cell count flag":"enough cells to score"}
{"gene knocked down":"Casp1 (caspase 1)","p65 translocation robust z-score":0.14,"nuclear/cytoplasmic p65 ratio, rep 1":1.68,"nuclear/cytoplasmic p65 ratio, rep 2":1.6,"low cell count flag":"enough cells to score"}
{"gene knocked down":"Or5an1c (olfactory receptor family 5 subfamily AN member 1C)","nuclear/cytoplasmic p65 ratio, rep 1":1.5,"nuclear/cytoplasmic p65 ratio, rep 2":1.3,"low cell count flag":"fewer than 50 cells per well; well left out of scoring"}
{"gene knocked down":"Serpina7","p65 translocation robust z-score":-0.29,"nuclear/cytoplasmic p65 ratio, rep 1":1.63,"nuclear/cytoplasmic p65 ratio, rep 2":1.52,"low cell count flag":"enough cells to score"}

2 entries from above, arranged by “p65 translocation robust z-score”, highest first.
{"gene knocked down":"Or10q12 (olfactory receptor family 10 subfamily Q member 12)","p65 translocation robust z-score":0.74,"nuclear/cytoplasmic p65 ratio, rep 1":1.66,"nuclear/cytoplasmic p65 ratio, rep 2":1.57,"low cell count flag":"enough cells to score"}
{"gene knocked down":"Evl (Ena-vasodilator stimulated phosphoprotein)","p65 translocation robust z-score":-0.45,"nuclear/cytoplasmic p65 ratio, rep 1":1.47,"nuclear/cytoplasmic p65 ratio, rep 2":1.25,"low cell count flag":"enough cells to score"}
